According to article PMC8464816:
No constants are given. Whether binding was seen depends on the method and setting. Binding seen in cells or lysates may run through a third protein. Some results given as binding are weak or reduced against the parent protein; the word gives no strength.

Amino acid sequences for entries named in this document (tags omitted). Residues count along the entry.
UniProt P35869, residues 11-848: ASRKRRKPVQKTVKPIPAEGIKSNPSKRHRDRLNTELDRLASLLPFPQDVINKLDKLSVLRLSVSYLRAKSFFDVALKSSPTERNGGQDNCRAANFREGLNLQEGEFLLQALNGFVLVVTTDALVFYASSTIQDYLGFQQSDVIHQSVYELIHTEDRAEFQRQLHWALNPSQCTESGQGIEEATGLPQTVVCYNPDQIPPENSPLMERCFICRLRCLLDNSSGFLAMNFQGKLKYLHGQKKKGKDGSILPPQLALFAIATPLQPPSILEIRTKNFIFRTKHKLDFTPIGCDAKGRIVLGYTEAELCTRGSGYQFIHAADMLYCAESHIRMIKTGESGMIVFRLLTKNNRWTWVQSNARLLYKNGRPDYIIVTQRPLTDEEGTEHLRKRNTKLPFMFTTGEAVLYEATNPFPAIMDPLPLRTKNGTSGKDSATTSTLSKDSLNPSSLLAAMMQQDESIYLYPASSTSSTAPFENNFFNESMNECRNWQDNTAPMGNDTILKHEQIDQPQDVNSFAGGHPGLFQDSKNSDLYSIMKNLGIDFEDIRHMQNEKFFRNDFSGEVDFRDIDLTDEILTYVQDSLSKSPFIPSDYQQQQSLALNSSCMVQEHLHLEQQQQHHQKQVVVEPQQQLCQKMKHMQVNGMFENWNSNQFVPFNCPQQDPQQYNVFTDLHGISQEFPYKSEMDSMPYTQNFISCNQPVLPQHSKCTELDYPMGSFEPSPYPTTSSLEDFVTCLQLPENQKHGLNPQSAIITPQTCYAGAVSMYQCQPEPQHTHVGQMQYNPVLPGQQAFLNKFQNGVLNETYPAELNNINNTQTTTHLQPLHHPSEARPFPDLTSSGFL

Target: aryl hydrocarbon receptor (human (endogenous in A549)) (UniProt P35869)
Test: co-IP; endogenous proteins in pre-cleared RIPA lysates (0.5 mg) of A549 wt and AHR-KO clones; capture antibodies against AHR or LRIG1 (1 ug/mL), overnight at 4 °C, protein A magnetic beads; Western blot

How did the binding turn out when “epidermal growth factor receptor (from UniProt P00533 25-1210)” was run?
Its binding is “binds”.

B1: leucine-rich repeats and immunoglobulin-like domains 1 (protein, UniProt Q96JA1 35-1093)
chain: AGPRAPCAAACTCAGDSLDCGGRGLAALPGDLPSWTRSLNLSYNKLSEIDPAGFEDLPNLQEVYLNNNELTAVPSLGAASSHVVSLFLQHNKIRSVEGSQLKAYLSLEVLDLSLNNITEVRNTCFPHGPPIKELNLAGNRIGTLELGAFDGLSRSLLTLRLSKNRITQLPVRAFKLPRLTQLDLNRNRIRLIEGLTFQGLNSLEVLKLQRNNISKLTDGAFWGLSKMHVLHLEYNSLVEVNSGSLYGLTALHQLHLSNNSIARIHRKGWSFCQKLHELVLSFNNLTRLDEESLAELSSLSVLRLSHNSISHIAEGAFKGLRSLRVLDLDHNEISGTIEDTSGAFSGLDSLSKLTLFGNKIKSVAKRAFSGLEGLEHLNLGGNAIRSVQFDAFVKMKNLKELHISSDSFLCDCQLKWLPPWLIGRMLQAFVTATCAHPESLKGQSIFSVPPESFVCDDFLKPQIITQPETTMAMVGKDIRFTCSAASSSSSPMTFAWKKDNEVLTNADMENFVHVHAQDGEVMEYTTILHLRQVTFGHEGRYQCVITNHFGSTYSHKARLTVNVLPSFTKTPHDITIRTTTMARLECAATGHPNPQIAWQKDGGTDFPAARERRMHVMPDDDVFFITDVKIDDAGVYSCTAQNSAGSISANATLTVLETPSLVVPLEDRVVSVGETVALQCKATGNPPPRITWFKGDRPLSLTERHHLTPDNQLLVVQNVVAEDAGRYTCEMSNTLGTERAHSQLSVLPAAGCRKDGTTVGIFTIAVVSSIVLTSLVWVCIIYQTRKKSEEYSVTNTDETVVPPDVPSYLSSQGTLSDRQETVVRTEGGPQANGHIESNGVCPRDASHFPEPDTHSVACRQPKLCAGSAYHKEPWKAMEKAEGTPGPHKMEHGGRVVCSDCNTEVDCYSRGQAFHPQPVSRDSAQPSAPNGPEPGGSDQEHSPHHQCSRTAAGSCPECQGSLYPSNHDRMLTAVKKKPMASLDGKGDSSWTLARLYHPDSTELQPASSLTSGSPERAEAQYLLVSNGHLPKACDASPESTPLTGQLPGKQRVPLLLAPKS
For B1, which binding is on record?
The binding was “binds”.
